Test results: patent US20230212523A1, “CULTURE MEDIUM FOR LARYNGEAL CANCER EPITHELIAL CELLS, CULTURE METHOD, AND APPLICATION THEREOF” (CAS (Hefei) Institute of Technology Innovation, priority 2020, published 2023)
Some entries share one result that the patent states for a list of compounds.

Test system: primary laryngeal cancer cells (No. 0S0005)
Experiment: Effects of different concentrations of the additive factors on proliferation of primary laryngeal cancer cells (ratio to control well BC)
Assay type: cell-based, human
Details: added to SCM lacking this factor; more preferably; FIGS. 3A-3G

SMILES | amount in the culture medium, more preferable for proliferation [µM]
CN1C(=O)C(c2c(F)cccc2F)N(C)c2nc(Nc3ccc(S(N)(=O)=O)cc3)ncc21 (centres unmarked) [Compound 1, 4-((7-(2,6-difluorophenyl)-5,8-dimethyl-6-oxo-5,6,7,8-tetrahydropteridin-2-yl)amino)benzsulfamide] | 2.5 to 10
C[C@@H](N)[C@H]1CC[C@H](C(=O)Nc2ccncc2)CC1 [Compound Y27632, Y27632, reference compound] | 2.5 to 10
